PubChem BioAssay AID1259308 – NCATS – 2017

- Test: 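Knock-downs that increase output of a recombinant reporter protein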 (primary screen)
- Cell system: human HEK293 embryonic kidney cells stably expressing firefly luciferase (HEK-CMV-Luc2-Hygro)
- Knock-down reagent: single siRNA against human genes, 0.8 pmol siRNA per well
- Timing: 72 h
- Measurement: 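Reporter luminescence and viable-cell signal on separate replicate plates, given as percent of non-targeting control and median/MAD z-scores, plus per-cell luciferase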
- Reading the numbers: total luciferase, z-score and total luciferase, % of control: higher = more reporter protein produced
- Call rule: 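Active when the median/MAD z-score for overall luciferase is greater than 3; a gene was taken forward for validation with new siRNAs if at least two of its three siRNAs passed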
- Meaning of the calls: active = raised luciferase; inactive = no rise
The deposit covers about 59,000 reagents; this is a part drawn at random. About 1,510 of them (2.6%) count as active. 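Calls use total luciferase alone and ignore viability, so some active siRNAs may act by altering cell number.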 Unmarked entries are inactive. Reagents against one gene are numbered here. Not all columns of the deposit are shown.

Which result is listed for SERGEF (secretion regulating guanine nucleotide exchange factor) #1?
total luciferase, z-score: -0.823; total luciferase, % of control: 65.5

With SERGEF (secretion regulating guanine nucleotide exchange factor) #2, what was measured?
total luciferase, z-score: -0.0836; total luciferase, % of control: 80.2

With SERGEF (secretion regulating guanine nucleotide exchange factor) #3, what does the deposit list?
total luciferase, z-score: -2.24; total luciferase, % of control: 37.3

For DERA (deoxyribose-phosphate aldolase) #1, what does the deposit list?
total luciferase, z-score: -0.37; total luciferase, % of control: 74.5

How did the screen score DERA (deoxyribose-phosphate aldolase) #2?
total luciferase, z-score: 0.92; total luciferase, % of control: 100

How did the screen score DERA (deoxyribose-phosphate aldolase) #3?
total luciferase, z-score: -0.948; total luciferase, % of control: 63

With IRF2 (interferon regulatory factor 2) #1, what does the deposit list?
total luciferase, z-score: -0.975; total luciferase, % of control: 62.5

For IRF2 (interferon regulatory factor 2) #2, what does the deposit list?
total luciferase, z-score: -0.617; total luciferase, % of control: 69.6

What did the screen give for IRF2 (interferon regulatory factor 2) #3?
total luciferase, z-score: 0.773; total luciferase, % of control: 97.3

For IGF2-AS (IGF2 antisense RNA) #1, what was measured?
total luciferase, z-score: -0.82; total luciferase, % of control: 65.6

How did the screen score IGF2-AS (IGF2 antisense RNA) #2?
total luciferase, z-score: -0.00613; total luciferase, % of control: 81.8

Which result is listed for IGF2-AS (IGF2 antisense RNA) #3?
total luciferase, z-score: -0.248; total luciferase, % of control: 76.9

What is on record for DIPK2B (divergent protein kinase domain 2B) #1?
total luciferase, z-score: -0.828; total luciferase, % of control: 65.4

What is on record for DIPK2B (divergent protein kinase domain 2B) #2?
total luciferase, z-score: 1.3; total luciferase, % of control: 108

What did the screen give for DIPK2B (divergent protein kinase domain 2B) #3?
total luciferase, z-score: -0.223; total luciferase, % of control: 77.5

For DIPK2B (divergent protein kinase domain 2B) #4, what does the deposit list?
total luciferase, z-score: -0.613; total luciferase, % of control: 69.7

How did the screen score DIPK2B (divergent protein kinase domain 2B) #5?
total luciferase, z-score: -1.97; total luciferase, % of control: 42.7

For DIPK2B (divergent protein kinase domain 2B) #6, how do the results read?
total luciferase, z-score: 0.569; total luciferase, % of control: 93.2

What is on record for UBE2B (ubiquitin conjugating enzyme E2 B) #1?
total luciferase, z-score: 0.587; total luciferase, % of control: 93.6

With UBE2B (ubiquitin conjugating enzyme E2 B) #2, how do the results read?
total luciferase, z-score: -1.46; total luciferase, % of control: 52.8

With UBE2B (ubiquitin conjugating enzyme E2 B) #3, what does the deposit list?
total luciferase, z-score: -0.897; total luciferase, % of control: 64.1

Which result is listed for SERPINF1 (serpin family F member 1) #1?
total luciferase, z-score: -0.551; total luciferase, % of control: 70.9

How did the screen score SERPINF1 (serpin family F member 1) #2?
total luciferase, z-score: 0.651; total luciferase, % of control: 94.8

Which result is listed for SERPINF1 (serpin family F member 1) #3?
total luciferase, z-score: -0.467; total luciferase, % of control: 72.6

How did the screen score NOL11 (nucleolar protein 11) #1?
total luciferase, z-score: -0.488; total luciferase, % of control: 72.2

What is on record for NOL11 (nucleolar protein 11) #2?
total luciferase, z-score: -0.727; total luciferase, % of control: 67.4

For NOL11 (nucleolar protein 11) #3, what does the deposit list?
total luciferase, z-score: -1.46; total luciferase, % of control: 52.8

What is on record for GFPT1 (glutamine--fructose-6-phosphate transaminase 1) #1?
total luciferase, z-score: 1.45; total luciferase, % of control: 111

What did the screen give for GFPT1 (glutamine--fructose-6-phosphate transaminase 1) #2?
total luciferase, z-score: -2.04; total luciferase, % of control: 41.2

How did the screen score GFPT1 (glutamine--fructose-6-phosphate transaminase 1) #3?
total luciferase, z-score: -0.368; total luciferase, % of control: 74.6

How did the screen score FMN1 (formin 1) #1?
total luciferase, z-score: -0.0325; total luciferase, % of control: 81.2

For FMN1 (formin 1) #2, what does the deposit list?
total luciferase, z-score: -0.905; total luciferase, % of control: 63.9

Which result is listed for FMN1 (formin 1) #3?
total luciferase, z-score: 0.491; total luciferase, % of control: 91.7

For FMN1 (formin 1) #4, what does the deposit list?
total luciferase, z-score: 1.5; total luciferase, % of control: 112

With FMN1 (formin 1) #5, what does the deposit list?
total luciferase, z-score: 1.23; total luciferase, % of control: 106

For FMN1 (formin 1) #6, what was measured?
total luciferase, z-score: -0.448; total luciferase, % of control: 73

What did the screen give for TOR1A (torsin family 1 member A) #1?
total luciferase, z-score: 0.619; total luciferase, % of control: 94.2

For TOR1A (torsin family 1 member A) #2, what was measured?
total luciferase, z-score: 0.746; total luciferase, % of control: 96.7

What is on record for TOR1A (torsin family 1 member A) #3?
total luciferase, z-score: 0.391; total luciferase, % of control: 89.7

Which result is listed for CLC (Charcot-Leyden crystal galectin) #1?
total luciferase, z-score: 1.53; total luciferase, % of control: 112

For CLC (Charcot-Leyden crystal galectin) #2, what does the deposit list?
total luciferase, z-score: 0.296; total luciferase, % of control: 87.8

Which result is listed for CLC (Charcot-Leyden crystal galectin) #3?
total luciferase, z-score: 0.595; total luciferase, % of control: 93.7
